Measurements from PubChem BioAssay AID493014 (National Center for Advancing Translational Sciences (NCATS), 2011).
The whole screen tested about 340,000 compounds, of which about 170 (0.05%) were called active. Inconclusive results, whose numbers are uncertain, are shown with a selection of clear calls. The call rests on the fitted dose curve; in most records, active means well fitted inhibition curve with a large enough effect in the signal ratio, with a control signal flat (not every such curve was filed as active); inconclusive means small, poorly fitted or top-dose-only effect, or effect the other way, or a change in a side signal; inactive means flat fitted curve, though single readings scatter; the % refers to the signal ratio. Potencies of inconclusive entries are doubtful fits and often do not repeat.
Potency means the concentration at half of the fitted maximal effect.

Assay: qHTS Assay to Find Inhibitors of Chronic Active B-Cell Receptor Signaling;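 on activity change, negative = inhibition: plate controls were basal doxycycline-induced cells for no effect and cells given 10 µM MG132 for full effect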
Details: ABC-DLBCL IkBa-CBG/CBR reporter, luminescence ratio (green luciferase fused to IkBa over red control in TMD8 lymphoma cells), 4 h; activity change, negative = inhibition: at 46.1 µM (top of the series)
Method in brief: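 Compounds up to 46 uM were incubated four hours with TMD8 cells whose green CBG68 luciferase is fused to IkappaBalpha; red CBR luminescence normalised the signal, and concentration-effect curves were fitted to fusion, red and ratio data.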
With `O=c1[nH]c2ccccc2n1CCC1CCCCC1` the activity change, negative = inhibition was inconclusive: 15.5%. With `O=C(Cn1[nH]c(=O)c2ccccc2c1=O)Nc1cccnc1` the Potency was inconclusive: 7.94 µM [falling, partial curve]. In the case of `CSCCC(NC(=O)COc1ccccc1)C(=O)N1CCN(c2ccccc2Cl)CC1` (stereo not given), the activity change, negative = inhibition is reported as inconclusive: -9.79%. For `O=C(c1cccnc1)N1c2ccccc2Sc2ccccc21`, the activity change, negative = inhibition was inconclusive: 0.527%. For `CC(=O)Oc1ccc(C2OC(=O)c3ccccc3N2C(C)=O)cc1` (stereo not given), the “activity change, negative = inhibition” value was inactive: 2.74%. With `CNC(=S)NNC(=O)CNc1ccc(C)c(Cl)c1` the “activity change, negative = inhibition” value was inactive: -2.86%. In the case of `CC1CCC(NC(=O)C(=O)Nc2ccc3c(c2)OCO3)CC1` (stereo not given), the Potency is reported as inconclusive: 1.12 µM [falling, full curve, poor fit]. In the case of `CC1CCN(CCCNC(=O)C2CCCN(c3ncnc4c3nc3n4CCCCC3)C2)CC1` (stereo not given), the “activity change, negative = inhibition” value is reported as inactive: -16.8%. With `CN(C)c1ccc(/C=C(\C#N)c2ccccc2)cc1` the Potency was inconclusive: 35.5 µM [cytotoxic, single point]. For `Cn1c(=O)c2cc(NCc3ccccc3)nnc2n(C)c1=O`, the activity change, negative = inhibition was inconclusive: -0.0364%. With `CC(C)Oc1ccc(/C=C/C(=O)NCC2COc3ccccc3O2)cc1` (stereo not given) the activity change, negative = inhibition was inconclusive: 9.31%. In the case of `COc1ccc(-n2ncc3c(NCCCOC(C)C)ncnc32)cc1`, the activity change, negative = inhibition is reported as inconclusive: 6.86%. With `Cc1ccc(NCc2n[nH]c(=S)n2-c2ccccc2)cc1` the “activity change, negative = inhibition” value was inactive: -0.684%. With `O=C(Nc1ccc(Cl)cc1)[C@@H]1[C@@H]2C(=O)N(c3cccc(F)c3)C(=O)[C@@H]2[C@H]2C=CC=NN21` the Potency was inconclusive: 17.8 µM [falling, partial curve]. In the case of `NC(=O)c1cc[n+](CC(=O)c2ccc(NC(=O)c3ccccc3)cc2)cc1`, the activity change, negative = inhibition is reported as inconclusive: 2.34%. In the case of `CC(OC(=O)Cc1n[nH]c(=O)c2ccccc12)C(=O)Nc1cc(Cl)cc(Cl)c1` (stereo not given), the activity change, negative = inhibition is reported as inconclusive: -19.2%. For `N=C1/C(=C/c2ccc(-c3cccc(C(=O)O)c3)o2)C(=O)N=C2SC(CC(=O)N3CCOCC3)=NN12`, the “activity change, negative = inhibition” value was inactive: -0.451%. In the case of `COc1ccc(/C=N/NC(=O)Cn2nc(C)c([N+](=O)[O-])c2C)cc1`, the activity change, negative = inhibition is reported as inconclusive: 3.16%. For `CN1CCc2c(c3c(n2C)CCN(C)[C@@H]3c2cccnc2)[C@H]1c1cccnc1`, the activity change, negative = inhibition was inconclusive: -7.3%. In the case of `COc1ccc(OC)c(-n2c(Cn3c(-c4ccccn4)nc4ccccc43)n[nH]c2=S)c1`, the activity change, negative = inhibition is reported as inconclusive: 4.41%. In the case of `COc1ccc(C(CNC(=O)c2cccc(S(=O)(=O)NCc3ccccc3)c2)N2CCOCC2)cc1` (stereo not given), the “activity change, negative = inhibition” value is reported as inactive: 0.982%. With `Cc1ccc(CNC(=O)c2ccc([N+](=O)[O-])o2)cc1` the “activity change, negative = inhibition” value was inactive: -4.19%. In the case of `O=C(O)/C=C\C(=O)Nc1ccccc1C(=O)NC1CCCCC1`, the Potency is reported as inconclusive: 10 µM [falling, partial curve, poor fit]. In the case of `CC1=CC(=O)C=CC1(C)C(Cl)Cl` (stereo not given), the activity change, negative = inhibition is reported as inconclusive: 7.07%. For `O=C(CCl)Nc1cn(-c2ccccc2)nc1-c1ccccc1`, the activity change, negative = inhibition was inconclusive: 6.81%. With `O=C(O)CCC(=O)Nc1nc2ccc([N+](=O)[O-])cc2s1` the Potency was inconclusive: 35.5 µM [rising, single point]. With `CCCCNC(=O)CC1C(=O)N(Cc2ccccc2)C(C)c2nc3ccccc3n21` (stereo not given) the activity change, negative = inhibition was inconclusive: 1.31%. With `O=C(CCl)c1ccc2c(c1)CCN2C(=O)C1CCCCC1` the activity change, negative = inhibition was inconclusive: 18.6%. In the case of `COc1ccccc1Nc1nc(-c2c(C)[nH]c3ccccc23)cs1`, the “activity change, negative = inhibition” value is reported as inactive: -14.3%. For `CCOC(=O)c1c(N)sc(C(=O)Nc2ccccc2)c1C`, the “activity change, negative = inhibition” value was inactive: -4.93%. With `N#C/C(=C\c1ccc(OCc2ccccc2)cc1)C(=O)Nc1ccc(C(=O)O)cc1` the “activity change, negative = inhibition” value was inactive: -4.05%. With `Cc1cc(C)c(S(=O)(=O)Nc2cccnc2)c(C)c1` the activity change, negative = inhibition was inconclusive: 0.462%. In the case of `Cc1cc(C)nc(-n2nc(C)cc2NC(=O)c2cccc(S(=O)(=O)N(C)C)c2)n1`, the activity change, negative = inhibition is reported as inconclusive: 0.743%. With `CN(c1ccc2nc3ccccc3c(=O)n2n1)C1CCCCC1` the activity change, negative = inhibition was inconclusive: 15%. With `CC(=O)N1CCN(CC(=O)Nc2ccc(C)c(S(=O)(=O)N(C)C)c2)CC1` the “activity change, negative = inhibition” value was inactive: 3.88%. For `COc1ccc(CCNC(=O)CN2c3cccc4cccc(c34)S2(=O)=O)cc1`, the activity change, negative = inhibition was inconclusive: -6.52%. For `COc1ccccc1/C=C/C(=O)OCCCN(C)C`, the activity change, negative = inhibition was inconclusive: -18.5%. For `CCCS(=O)(=O)c1nc(S(=O)(=O)c2ccc(C)cc2)c(N2CCN(CC)CC2)s1`, the “activity change, negative = inhibition” value was inactive: -11.4%. In the case of `O=C(NC(=S)N(CCc1ccccc1)CCc1ccccc1)c1ccco1`, the Potency is reported as inconclusive: 18.4 µM [falling, single point]. For `CC(C)(O)C#Cc1ccc(CN2CCCC(CO)(Cc3cccc(Cl)c3)C2)cc1` (stereo not given), the activity change, negative = inhibition was inconclusive: -26.1%. In the case of `CCCCCCC1/C(=N\NC(=O)c2ccccc2)CCC1C(=O)OC` (stereo not given), the Potency is reported as inconclusive: 25.1 µM [falling, single point]. In the case of `C=CCNC(=S)N/N=C/c1ccc(-c2cc(Cl)ccc2Cl)o1`, the activity change, negative = inhibition is reported as inconclusive: -23.2%. For `CCc1ccc(NC(=O)c2noc3c2CCC3)cc1`, the Potency was inconclusive: 20.6 µM [falling, single point]. In the case of `COc1ccc2c3c(c(=O)oc2c1OCC(N)=O)CCCC3`, the “activity change, negative = inhibition” value is reported as inactive: 1.28%. With `CN1CCCC(CC2Oc3ccccc3Sc3ccccc32)C1` (stereo not given) the Potency was inconclusive: 20.6 µM [falling, single point]. In the case of `O=C(CSc1nc2ccccc2c(=O)[nH]1)Nc1ccccc1N1CCOCC1`, the activity change, negative = inhibition is reported as inconclusive: -13.5%. With `CC(C)(C)NC(=O)COC(=O)c1snc(C(=O)NC2CCCCC2)c1N` the Potency was inconclusive: 18.4 µM [falling, partial curve]. For `Cc1cccc(OCC(=O)NCC(=O)N/N=C/c2ccc(O)cc2O)c1`, the activity change, negative = inhibition was inconclusive: -9.62%. In the case of `CCCCC(=O)NC(c1cccc([N+](=O)[O-])c1)c1c(OC(C)=O)ccc2ccccc12` (stereo not given), the Potency is reported as inconclusive: 29.1 µM [rising, single point]. For `O=S(=O)(c1ccc(F)cc1)n1ccc2cccnc21`, the “activity change, negative = inhibition” value was inactive: -1.2%. With `Cc1nc(Nc2c(Cl)cccc2Cl)sc1C(=O)Nc1ccccc1` the activity change, negative = inhibition was inconclusive: 28.9%. With `COc1cccc(OCCn2cc(/C=N/NC(=O)c3ccncc3)c3ccccc32)c1` the activity change, negative = inhibition was inconclusive: -4.11%. For `CCc1ccccc1NC(=O)CN(C)C(=O)Cn1ncc(Cl)c(Cl)c1=O`, the Potency was inconclusive: 8.2 µM [rising, partial curve]. In the case of `Cc1cc(C)cc(OCCCn2ccnc2)c1`, the “activity change, negative = inhibition” value is reported as inactive: 0.382%. With `COc1ccccc1NC(=S)N(Cc1cccnc1)Cc1ccccc1Cl` the activity change, negative = inhibition was inconclusive: 11.4%. For `CCn1cnc2cc(NCc3nc4ccccc4n3Cc3ccccc3)ccc21`, the activity change, negative = inhibition was inconclusive: -19.5%. For `CCc1nc(SCC(=O)Nc2ccccc2Cl)n[nH]1`, the “activity change, negative = inhibition” value was inactive: -11.3%. In the case of `O=C(Nc1ccc(Br)cc1F)c1ccc2c(c1)OCCO2`, the Potency is reported as inconclusive: 22.4 µM [falling, partial curve]. With `Cc1ccccc1OCC(=O)NNC(=S)NC(=O)c1ccco1` the Potency was inconclusive: 3.16 µM [falling, full curve]. In the case of `Clc1cc(Br)ccc1OCCOCCOc1cccc2cccnc12`, the activity change, negative = inhibition is reported as inconclusive: 2.78%. In the case of `Cc1nc2ccccc2c(=O)n1/N=C/c1cn(-c2ccccc2)nc1-c1cccs1`, the Potency is reported as inconclusive: 35.5 µM [rising, partial curve, poor fit]. In the case of `Cc1cc(Nc2ccccc2Cl)nc(-c2ccccc2O)n1`, the activity change, negative = inhibition is reported as inconclusive: 0.599%. With `Cn1c(CCN2CCCCC2)nc2cc(NC(=O)NC3CCCCC3)ccc21` the activity change, negative = inhibition was inconclusive: -9.12%. For `Cc1cc2c(cc1C)N(CC(=O)N1CCCC1)C(=O)CC(c1ccccc1)=N2`, the activity change, negative = inhibition was inconclusive: -12%. For `COc1cc(NC(=O)CSc2nc(C)cc(C)n2)cc(OC)c1OC`, the “activity change, negative = inhibition” value was inactive: -0.759%. In the case of `Cc1nc2sc(C(c3cccc(F)c3)N3CCC(C)CC3)c(O)n2n1` (stereo not given), the activity change, negative = inhibition is reported as inconclusive: 17.3%. In the case of `COc1cc2c(C)nc3c(cnn3-c3ccccc3)c2cc1OC`, the activity change, negative = inhibition is reported as inconclusive: 14.6%. In the case of `O=C(COc1ccc(Cl)cc1Cl)Nc1ccc(CN2CCCCC2)cc1`, the “activity change, negative = inhibition” value is reported as inactive: 7.93%. With `CC1(C)CCc2c([nH]c3ccccc3c2=O)O1` the activity change, negative = inhibition was inconclusive: 0.42%. With `COc1ccc(CC(=O)OCC(=O)N2CCN(S(=O)(=O)c3ccc(C)cc3C)CC2)cc1OC` the “activity change, negative = inhibition” value was inactive: -2.18%. In the case of `Cc1ccc(-c2csc(NC(=O)CN3C(=O)CCC3=O)n2)cc1`, the activity change, negative = inhibition is reported as inconclusive: -0.28%. With `CCCNc1nc2c(c(=O)n(C)c(=O)n2C)n1CCc1ccccc1` the activity change, negative = inhibition was inconclusive: -3.64%. For `CCN(C(=O)COC(=O)C1CCN(S(=O)(=O)c2ccc3c(c2)OCCO3)CC1)C1CCS(=O)(=O)C1` (stereo not given), the “activity change, negative = inhibition” value was inactive: 3.93%. With `O=[N+]([O-])c1ccc(Cl)c2cccnc12` the Potency was inconclusive: 12.6 µM [falling, single point]. With `CS(=O)(=O)N1CCN(c2nc(-c3ccccc3)cs2)CC1` the activity change, negative = inhibition was inconclusive: 21.6%. For `COc1ccc(-n2c(SCC(N)=O)nc3sc4c(c3c2=O)CCC4)cc1`, the activity change, negative = inhibition was inconclusive: 11%. In the case of `Cc1ccc(CNC(=O)C2CCN(S(=O)(=O)N3CCCCC3)CC2)cc1`, the activity change, negative = inhibition is reported as inconclusive: -4.25%. With `CC(=O)Nc1ccc(SCC(=O)Nc2ccc(Cl)cn2)cc1` the activity change, negative = inhibition was inconclusive: -8.31%. For `CC1(C)Cc2c(sc3c2c(=N)n(Cc2ccco2)c(=O)n3Cc2ccccc2)CO1`, the activity change, negative = inhibition was inconclusive: 8.24%. With `Cc1[nH]c2ccccc2c1C(=O)CSc1ccc(F)cc1` the activity change, negative = inhibition was inconclusive: 7.41%. With `Cc1c(C#N)c(NC(=O)CCl)n(Cc2cccs2)c1C` the Potency was inconclusive: 2.51 µM [falling, full curve, poor fit]. For `Cc1ccc(NC(=S)NCC2CCN(C(C)c3ccccc3)C2)cc1` (stereo not given), the activity change, negative = inhibition was inconclusive: 1.35%. For `O=C(COC(=O)/C=C/c1ccc([N+](=O)[O-])cc1)NCC1CCCCC1`, the “activity change, negative = inhibition” value was inactive: -0.277%. In the case of `O=C(Nc1ccc(Nc2ccccc2)cc1)c1ccc(Br)o1`, the “activity change, negative = inhibition” value is reported as inactive: -1.51%. In the case of `O=C(Nc1nnc(C2CC2)s1)c1cc2ccccc2o1`, the Potency is reported as inconclusive: 4.11 µM [rising, full curve].
